Test results reported in the supplement of paper PMC3334620.
Over roughly 33,000 sequences, “E-score (-0.5 to 0.5)” has its median near -0.0014; the highest 2% begin near 0.25. The list shows a part of the results.

Molecular target: T1, Cad1 (UniProt P24813)
T1 sequence: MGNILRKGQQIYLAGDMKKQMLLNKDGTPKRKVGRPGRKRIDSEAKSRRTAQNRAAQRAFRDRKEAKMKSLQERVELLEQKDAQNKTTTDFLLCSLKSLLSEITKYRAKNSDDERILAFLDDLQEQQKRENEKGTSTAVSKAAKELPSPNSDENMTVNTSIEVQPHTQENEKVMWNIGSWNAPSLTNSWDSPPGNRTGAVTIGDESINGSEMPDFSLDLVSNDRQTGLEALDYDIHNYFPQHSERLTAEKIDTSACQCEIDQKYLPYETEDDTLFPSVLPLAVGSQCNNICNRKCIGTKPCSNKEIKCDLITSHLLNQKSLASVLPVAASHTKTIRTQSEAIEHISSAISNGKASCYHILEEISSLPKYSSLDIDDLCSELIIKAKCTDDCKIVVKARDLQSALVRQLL
Assay: PBM E-score (8-mer binding enrichment) (E-score (-0.5 to 0.5)); higher = stronger / more preferred TF binding
Conditions: protein concentration: 100 nM; construct: GST-full length
How it was run: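 Using PURExpress in vitro transcription/translation, GST-tagged yeast transcription factors were made in full-length or DNA-binding-domain form. These were applied at about 100-200 nM to double-stranded universal all-10-mer Agilent arrays, and bound protein was detected with fluorescent anti-GST. Scans were normalised with masliner before the Universal PBM Analysis Suite assigned E-scores to ungapped eight-base words pooled with their reverse complements.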

Sequence	PBM E-score
ATACAGGC	-0.0561
CCTGCAAC	0.0524
AGGGTAAC	-0.151
CGATGAGA	0.0219
AGCAGGTA	-0.0965
GTATAGAC	-0.0122
CCTATGTA	-0.113
GCAGATGA	0.0232
CAAACCGG	-0.0831
CGCAAACG	0.148
ACCAAGGC	-0.0921
CGGCGCTA	-0.0841
ACCCCCGT	-0.308
CCTTACGC	0.225
AATTGCTA	0.0849
CTCCTCCC	-0.192
AATTACTA	0.32
CATATTAC	0.225
AATGCTGG	0.0356
ACGGGGCA	-0.125
AGACTCGC	-0.107
AGTTGCTG	-0.0722

Sequence	PBM E-score
CATACTCC	-0.0816
AAGATACG	0.0308
CGCATAAG	0.0878
GCTGAAAC	0.0683
ATGAGTCG	0.043
GACAGCTA	-0.0363
CCCGCGGA	0.0649
ATTCTGGG	0.0931
AAACCAAG	0.142
GGTCGGAA	-0.0198
AGGACGTA	-0.129
CAGTTTTC	0.142
AGCCTGAG	-0.0629
AATGTCAA	0.133
AGACAACC	0.134
ATGCACAG	-0.00271
AAAACAGG	-0.0537
CAGTCAAC	-0.175
ACATAAAG	0.0348
AGCAGCCC	-0.243
GGGCTCTA	-0.0847
TATGCAGA	0.0639

Sequence	PBM E-score
CATTAAGA	-0.0602
GTAAGTGA	0.131
CGATATGA	-0.0023
ACTTGCTA	-0.0478
ACAGGTTC	-0.189
CGATACCG	0.07
AAGTAGGA	-0.0664
CCCATCGA	0.00956
TTAGGAAA	0.0632
CTAGAAGA	-0.16
ACCGGCCC	-0.27
AAGCTCCA	-0.0892
CGCCAGAA	0.0344
CATTCCAA	0.0895
ATACACAG	0.0693
GGGTTATA	-0.0871
CATAAAGC	-0.0155
AGGAATAC	-0.0525
TGGGGCAA	-0.152
CGGGTATC	-0.131
GCGGTCGA	0.012
ATATTTAG	0.255

Sequence	PBM E-score
ATAGCATC	0.0877
AATTTCGC	0.166
ATACGGCG	0.155
GATCCGGA	0.058
AATTGCTG	0.193
ATACCAAC	0.242
ACACGGCT	0.0272
ATGCGGCC	0.0419
GTCAGACA	0.116
CCCTTGCA	-0.155
GGAGACGA	0.0399
GCCATGAA	0.0405
CATACGCG	0.208
CCAATGAC	-0.0858
CGGCCACC	-0.124
TAACCCCA	-0.262
GCATCGAC	-0.0789
CTTCCGAA	0.0246
TCCTAAAA	0.0491
CACCAGAA	-0.215

Looked up one by one from above (4):
Sequence	PBM E-score
TGGGGCAA	-0.152
AGTTGCTG	-0.0722
GCAGATGA	0.0232
CGATGAGA	0.0219
